In experiment [1] the target is T1, human CLCF1 tagged with the protein C epitope (CLCF1_(ProtC)) (human) (UniProt Q9UBD9).
T1 sequence: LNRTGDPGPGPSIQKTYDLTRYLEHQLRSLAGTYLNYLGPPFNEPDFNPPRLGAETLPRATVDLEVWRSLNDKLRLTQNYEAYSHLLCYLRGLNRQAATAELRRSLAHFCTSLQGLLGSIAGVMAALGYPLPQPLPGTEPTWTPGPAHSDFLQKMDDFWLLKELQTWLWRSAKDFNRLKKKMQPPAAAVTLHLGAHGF
Put plainly: co-IP; lysates of co-transfected HEK-293T cells (50 mM Tris-HCl pH 7.5, 150 mM NaCl, 1 mM CaCl2, 1% Nonidet P-40, 0.5% sodium deoxycholate); CLCF1_(ProtC) precipitated with anti-ProtC affinity matrix, eluted with EDTA, western blot. Background: Immunoblotting shows a protein as a band on a membrane.

The chains behind the UniProt entries cited, without tags or fusion partners. Where a name states a change or a piece, a line headed by the entry shows the natural chain unless it says otherwise. Residues count along the entry.
UniProt P29460, residues 23-328: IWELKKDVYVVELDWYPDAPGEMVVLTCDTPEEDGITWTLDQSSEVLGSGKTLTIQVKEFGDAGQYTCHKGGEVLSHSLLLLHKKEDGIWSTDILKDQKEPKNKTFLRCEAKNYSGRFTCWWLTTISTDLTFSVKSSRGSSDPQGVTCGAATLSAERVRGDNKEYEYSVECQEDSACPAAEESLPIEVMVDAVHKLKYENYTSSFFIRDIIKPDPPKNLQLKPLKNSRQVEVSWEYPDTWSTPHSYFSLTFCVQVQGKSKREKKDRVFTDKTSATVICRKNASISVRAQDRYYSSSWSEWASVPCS

For experiment [2], the target named is T2, human CLCF1 stably expressed in Ba/F3 cells (human) (UniProt Q9UBD9).
T2 sequence: T1 sequence
Put plainly: proximity ligation; Duolink flowPLA in Ba/F3 cells treated with brefeldin A, fixed and permeabilized; anti-CLCF1 and anti-p40 primary antibodies; read by flow cytometry. In general terms: A flow cytometer gives signals particle by particle.

Experiment [3] addresses T1, human CLCF1 tagged with the protein C epitope (CLCF1_(ProtC)) (human). Put plainly: co-IP; supernatants of HEK-293T cells transfected separately (CLCF1_(ProtC) with CRLF1_(FLAG); p40) mixed in equal parts, 37 °C for 24 h, then anti-ProtC affinity matrix.
For experiment [4] the target is unchanged. Put plainly: co-IP; sequential immunoprecipitation from supernatants of HEK-293T cells co-expressing CLCF1_(ProtC), CRLF1_(FLAG) and p40: anti-ProtC affinity matrix, then anti-FLAG affinity gel on the eluted fractions.
Experiment [5] deals with T3, human CRLF1 tagged with the FLAG epitope (CRLF1_(FLAG)) (human) (UniProt O75462).
T3 sequence: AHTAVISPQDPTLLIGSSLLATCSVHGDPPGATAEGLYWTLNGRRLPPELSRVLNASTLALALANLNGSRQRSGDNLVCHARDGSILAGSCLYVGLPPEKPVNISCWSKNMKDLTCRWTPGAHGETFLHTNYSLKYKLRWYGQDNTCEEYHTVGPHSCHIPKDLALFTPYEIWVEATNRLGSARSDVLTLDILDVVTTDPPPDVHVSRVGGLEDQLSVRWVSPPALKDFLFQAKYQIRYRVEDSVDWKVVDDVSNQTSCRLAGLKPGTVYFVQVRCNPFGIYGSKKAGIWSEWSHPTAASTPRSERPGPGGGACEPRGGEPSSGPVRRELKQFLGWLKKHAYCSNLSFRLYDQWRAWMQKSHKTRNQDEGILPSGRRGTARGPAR
The experiment is described as above.

Experiment [6] has as its target T1, human CLCF1 tagged with the protein C epitope (CLCF1_(ProtC)) (human). The experiment can be described thus: co-IP; supernatants of co-transfected HEK-293T cells with 1 mM CaCl2 and 1% Nonidet P40; CLCF1_(ProtC) precipitated with anti-ProtC affinity matrix, western blot.
The target in experiment [7] is T3, human CRLF1 tagged with the FLAG epitope (CRLF1_(FLAG)) (human). Put plainly: co-IP; supernatants of co-transfected HEK-293T cells with 1% Triton X-100; CRLF1_(FLAG) precipitated with anti-FLAG affinity gel, western blot; also without CLCF1 cDNA.
The target of experiment [8] is T4, CLCF1_(ProtC) expressed from the bicistronic p40_(FLAG)-T2A-CLCF1_(ProtC) cDNA in Ba/F3 cells (human) (UniProt Q9UBD9).
T4 sequence: T1 sequence
Put plainly: proximity ligation; Duolink flowPLA in Ba/F3 cells treated with brefeldin A, fixed and permeabilized; anti-CLCF1 and anti-p40 primary antibodies; read by flow cytometry.

These are yes or no findings as the source states them, for the method shown. Binding seen in cells or lysates may run through a third protein. Some results given as binding are weak or reduced against the parent protein; the word gives no strength. For part of these data: Tags and fused reporters may be left off the sequences shown.

Turning to “human p40 tagged with the FLAG epitope (p40_(FLAG)) (from UniProt P29460 23-328)”, in experiment [1], the binding entry was “binds”.

On to “human p40 transduced into Ba/F3 cells that stably expressed CLCF1 (from UniProt P29460 23-328)”, for which, in experiment [2], the binding result is given as “binds”.

For the substance “human p40 untagged (p40), the β subunit of IL12/IL23 (from UniProt P29460 23-328)”, the binding result in experiment [3], in experiment [4], in experiment [5], in experiment [6], in experiment [7] and in experiment [1] was “binds” throughout.

Consider “p40_(FLAG) expressed from the bicistronic p40_(FLAG)-T2A-CLCF1_(ProtC) cDNA in Ba/F3 cells (from UniProt P29460 23-328)”, for which the binding result in experiment [8] is listed as “binds”.

Values taken from publication PMC12485051.
